Source: the supplement of paper PMC5949888
Most values lie at the floor of the assay. Slopes are relative: functional sequences can read slightly below zero.

What follows are substances tested on Saccharomyces cerevisiae PS128 hsf1 delta, HSF1(1-493) fusion (assay: growth estimate (transactivation domain function in HSF1 fusion, heat-shock survival) (a.u. (slope of normalised read count over time)); higher = stronger growth at 37°C, i.e. more transactivation activity). Settings: library: random library.

Substance	growth estimate
LCHIKNIAKLR	< -0.25
GDA	-0.243
ADEYVRYAFRRTFLSSWSRN	< -0.25
HPYAGVAGM	< -0.25
TVSTRGLYSTGQVPCG	< -0.25
YVDQ	< -0.25
RGLSGRRSLRNLTGVCEYLA	< -0.25
MVAMLV	< -0.25
CVTN	< -0.25
GRRRVRFD	< -0.25
QRHPGCHVIQPALVASI	< -0.25
CNRKRSVTGTFNREPMDYSR	< -0.25
GGSRRCRVKLQLSPCPMLQN	< -0.25
RARLRERRSIGTLLIRSLLS	< -0.25
LCICKELLRHSLDSLKPWEQ	< -0.25
SDEGFTADCHGCSAPLMLPC	< -0.25
GYSSCSTSWCGNAFLYSATV	< -0.25
LHGVYWQGIVVLGIAKIDQT	< -0.25
QGRGEKLVRLLVVGASYYVP	< -0.25
LRASAGEGMAC	< -0.25
ISVFGRKLCWRRATACTR	< -0.25
PVIASLWRRPESARVTPLAK	< -0.25
VNW	< -0.25
RTTRRQDHGMRHRYREVRGP	< -0.25

For reference, part of the list above.
Substance	growth estimate
TVSTRGLYSTGQVPCG	< -0.25
YVDQ	< -0.25
RGLSGRRSLRNLTGVCEYLA	< -0.25
MVAMLV	< -0.25

Following part:

Substance	growth estimate
RLRRQDQSFVPKFVLFTTST	< -0.25
QRYLAGGRDVPFPPSVKRPA	< -0.25
ALICAPDI	< -0.25
LQHPKIVGRSPFPPLRPPCL	< -0.25
MIHAQDLPRSQSRHCVVLRP	< -0.25
DFGAMPGIGREIRPPRLRGR	< -0.25
CILWERHPCCLAQYSTRVAK	< -0.25
SLMGVDSPGAGEPDRLCNAI	< -0.25
VVFTFWQSFHHLCRCRGHDR	< -0.25
SSSLGWELKKKG	< -0.25
SCDGRTESPRFISGVP	< -0.25
TTAFYLGVAENANRWSGRSL	< -0.25
RNGESFKRGQGIKNPSASRG	< -0.25
QLRERLHIRSRI	< -0.25
CTRTFGPVQPGTLVNRGVLE	< -0.25
SSENG	< -0.25
MRGNGVGIGAIGDKR	< -0.25
HSCGSRSAIGPRSSGRASPE	< -0.25
EYGISAMQTT	< -0.25
EGTSELGSVILGVR	< -0.25
ETRTAGNNSGSDITTADGFW	-0.246
PPNIRSEFSERTQSDITCFG	< -0.25
LSPEQYAGQVGTVESSIWEV	-0.237
VRTWRRCTRIRWC	< -0.25

Substance	growth estimate
AEGYAILNSGYQWQLINGDG	< -0.25
LPMQFIRC	< -0.25
TYPLDELDGRIAYRIRLDNI	< -0.25
DLEYL	< -0.25
FIPKSTLRISKLDCHSFV	< -0.25
AGAESLWYRNLYGDGCSLAA	< -0.25
VDVYVATTACEIPSLR	< -0.25
TAIRIGVVCCHCS	< -0.25
GCYVSV	< -0.25
PTGPKGTLACTNPKCRAQTI	< -0.25
PDVRAIRASSVESLGISGST	< -0.25
RTVGFPSLAGAGLCHVSPQE	< -0.25
EVRSSSTPKR	< -0.25
DRYKVFEITLLRSVPK	< -0.25
SVEDIVCDHTAD	< -0.25
CCPWLRGRTFRRYKVGASGV	< -0.25
GVSDAGALALHALLVEPPAV	< -0.25
HHH	< -0.25
NFVLGRSAVSVLGLWQRCGG	< -0.25
HIFLKCEP	< -0.25
QEFFCALRLNVVRSREVSVR	< -0.25
FGLEHQLTCAIRSAN	< -0.25
FRCGFVCRYS	< -0.25
NIWAARIHYMVA	-0.241

Substance	growth estimate
KGWAACT	< -0.25
RRLGRVKAPGQMCT	< -0.25
CPVDDSSPAGVLLEVAMPVQ	< -0.25
TTCGSFSRTPSQFGGLRSMG	< -0.25
LPPPTG	< -0.25
GFVAQVDGNTCAL	< -0.25
CVARGYIFQERSN	< -0.25
LAILGWIT	< -0.25
CVVLMLGLCRIYPGIRWCVR	< -0.25
YRCHIVVYCGQFFTMHPGSH	< -0.25
LGIGVSVRGSVDANVIEGGM	< -0.25
RLTDLVCMILTVVCPWQCVP	< -0.25
PPLLTVTGRLPESQLSEERV	< -0.25
RGSVRTQKRIS	< -0.25
FIGPRLGNLLDTPMLTPFRQ	< -0.25
YVAAPSLGSNRLVVGGPSGG	< -0.25
QLGLVFNSKLRSSVAVPCVC	< -0.25
RSRWSGGGLRTYRKS	< -0.25
SYMSGTLNYKLRYARVQISV	< -0.25
SIEEGKQSGHYIL	< -0.25
DEF	< -0.25
LRPPTVRVWGCQASSVNWTP	< -0.25
VPALLVVCMPSQWRQPSWPA	< -0.25
EPFLE	< -0.25

Substance	growth estimate
PSSRGHCKAHMRKFCMW	< -0.25
KVPGRRLDGRCLYQALVIPR	< -0.25
RKDFRKMTLKRGRGYVNIWA	< -0.25
FGVASSIPIGSLLCLQPRVG	< -0.25
ASVRTEVSPVWGASTVDYGL	< -0.25
APPVRSQAIPGVHAKAQWQN	< -0.25
CRTCGLTMRIRSDAGTVRNH	< -0.25
SQRRWRGEGPTPLPITLVAE	< -0.25
MIVRGAIYGCVAVKNSSTQR	< -0.25
VEISETLLSNGC	< -0.25
HFTSRTARFRVDWLERL	< -0.25
PLSGDAKLRTGCD	< -0.25
FRPGSASTIVVTGAGCA	< -0.25
RRMGAYSRRALDHRNPHRCP	< -0.25
PLGMHRTTAS	-0.243
CRSLHPAKMCSCIWFLARVE	< -0.25
RDFAHDNCLNGIYCHCTVCI	-0.24
LSLNPAGGL	< -0.25
FSKRAAKLHYLRSLAG	< -0.25
FTERPVLATRSSSPDHSASA	< -0.25
SATWIALRTRVGLNSLGDLL	< -0.25
PRAVQSERVLVQAQSKMAYP	< -0.25
RKVLNA	< -0.25
RRDRTSYCCDDSVFKGGNHG	< -0.25

Substance	growth estimate
DRKCHLVPYGLSS	< -0.25
VTSLKPSHG	< -0.25
RGMMQAIYPRQQVTARCSMA	< -0.25
SLDT	< -0.25
NPHVVENTWGL	< -0.25
ERPLAGNGLVLMVPTGARCA	< -0.25
RQRFFSACVHVKRYHKHLRA	< -0.25
RVLDGNFESQGQARHPMESS	< -0.25
LYVDRIMRSDPKWACPRLSQ	< -0.25
GEPLCRNAWVGIDW	< -0.25
YGTGILILVNECSF	< -0.25
SSHEVCNGRDHPPSRPSRHP	< -0.25
NPTRVTEVWEGVSVWIVYRP	< -0.25
RITSGRSPLWESEIDPKWDK	< -0.25
RCGGCAGPPIKKTGQDHLIC	< -0.25
TRGPWE	< -0.25
AGSLSS	< -0.25
RMRKHNHYPTIPRSKG	< -0.25
SGLRLL	< -0.25
WQVTGNGKWRPLKRQRSHPA	< -0.25

Reformatted as comma-separated lines: part of the list above.
Substance,growth estimate
DRKCHLVPYGLSS,< -0.25
VTSLKPSHG,< -0.25
